Laboratory results taken from the supplement of paper PMC10849652.
The other results are listed elsewhere or left out.

By UniProt entry, the sequences of proteins in these tests, tags left out. Where a name states a change or a piece, a line headed by the entry shows the natural chain unless it says otherwise.
UniProt P18858, whole entry, looked up: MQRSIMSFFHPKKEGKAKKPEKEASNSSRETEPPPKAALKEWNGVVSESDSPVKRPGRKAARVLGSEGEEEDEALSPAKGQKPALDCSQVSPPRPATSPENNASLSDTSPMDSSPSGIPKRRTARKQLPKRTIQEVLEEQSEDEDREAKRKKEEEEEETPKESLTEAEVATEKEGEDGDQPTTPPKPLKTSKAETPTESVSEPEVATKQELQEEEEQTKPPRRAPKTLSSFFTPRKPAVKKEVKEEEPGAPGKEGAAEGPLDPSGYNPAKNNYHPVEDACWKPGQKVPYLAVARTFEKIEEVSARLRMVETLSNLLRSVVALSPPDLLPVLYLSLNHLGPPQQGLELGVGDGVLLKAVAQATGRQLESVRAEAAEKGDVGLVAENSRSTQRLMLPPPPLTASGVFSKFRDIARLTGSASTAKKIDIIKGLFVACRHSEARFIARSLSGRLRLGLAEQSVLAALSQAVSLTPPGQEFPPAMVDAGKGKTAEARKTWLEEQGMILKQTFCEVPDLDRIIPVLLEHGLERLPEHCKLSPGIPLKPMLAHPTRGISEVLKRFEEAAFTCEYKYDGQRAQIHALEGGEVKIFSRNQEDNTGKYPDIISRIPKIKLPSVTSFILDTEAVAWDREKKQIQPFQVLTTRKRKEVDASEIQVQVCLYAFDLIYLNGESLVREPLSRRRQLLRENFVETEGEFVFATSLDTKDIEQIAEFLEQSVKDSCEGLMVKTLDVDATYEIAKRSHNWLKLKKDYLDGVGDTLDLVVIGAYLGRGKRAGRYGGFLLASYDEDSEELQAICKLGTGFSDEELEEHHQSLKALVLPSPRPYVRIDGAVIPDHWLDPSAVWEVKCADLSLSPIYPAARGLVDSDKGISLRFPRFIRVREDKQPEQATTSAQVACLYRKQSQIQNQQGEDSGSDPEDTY
UniProt Q15031: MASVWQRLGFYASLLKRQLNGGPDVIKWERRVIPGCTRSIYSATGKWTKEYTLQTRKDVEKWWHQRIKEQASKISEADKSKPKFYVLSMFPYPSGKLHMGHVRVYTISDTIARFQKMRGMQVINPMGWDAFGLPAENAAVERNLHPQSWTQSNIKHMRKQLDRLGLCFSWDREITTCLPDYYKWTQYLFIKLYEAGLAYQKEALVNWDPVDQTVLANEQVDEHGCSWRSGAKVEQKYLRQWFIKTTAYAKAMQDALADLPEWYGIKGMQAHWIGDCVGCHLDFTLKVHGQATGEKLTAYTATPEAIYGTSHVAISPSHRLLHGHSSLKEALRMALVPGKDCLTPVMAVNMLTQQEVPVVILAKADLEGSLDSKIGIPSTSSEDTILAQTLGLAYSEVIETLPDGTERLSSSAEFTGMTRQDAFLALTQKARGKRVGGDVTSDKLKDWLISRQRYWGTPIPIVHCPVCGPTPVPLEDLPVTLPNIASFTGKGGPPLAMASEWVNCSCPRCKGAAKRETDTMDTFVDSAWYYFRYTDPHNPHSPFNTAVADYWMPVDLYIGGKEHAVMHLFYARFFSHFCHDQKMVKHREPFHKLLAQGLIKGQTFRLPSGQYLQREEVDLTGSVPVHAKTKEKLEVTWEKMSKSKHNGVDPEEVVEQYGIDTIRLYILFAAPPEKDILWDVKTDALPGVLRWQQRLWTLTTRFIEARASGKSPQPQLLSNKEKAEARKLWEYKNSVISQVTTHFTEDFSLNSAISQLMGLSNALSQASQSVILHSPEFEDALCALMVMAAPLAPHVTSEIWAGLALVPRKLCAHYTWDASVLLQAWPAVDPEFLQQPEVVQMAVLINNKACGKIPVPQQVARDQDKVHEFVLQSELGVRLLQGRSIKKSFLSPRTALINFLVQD
UniProt Q8N9N7: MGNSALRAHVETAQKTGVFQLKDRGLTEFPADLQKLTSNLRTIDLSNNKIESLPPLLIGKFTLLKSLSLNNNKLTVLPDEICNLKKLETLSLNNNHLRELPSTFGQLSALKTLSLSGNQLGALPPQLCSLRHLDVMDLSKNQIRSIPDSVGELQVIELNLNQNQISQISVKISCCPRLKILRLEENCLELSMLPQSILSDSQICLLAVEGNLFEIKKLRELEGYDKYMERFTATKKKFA
UniProt Q96BZ8: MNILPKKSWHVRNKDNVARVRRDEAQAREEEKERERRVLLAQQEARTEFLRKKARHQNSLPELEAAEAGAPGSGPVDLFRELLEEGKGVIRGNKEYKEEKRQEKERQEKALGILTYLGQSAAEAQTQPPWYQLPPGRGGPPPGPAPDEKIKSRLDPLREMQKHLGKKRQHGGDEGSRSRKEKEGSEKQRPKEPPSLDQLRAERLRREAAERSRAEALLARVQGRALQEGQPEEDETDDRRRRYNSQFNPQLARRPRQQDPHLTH
UniProt Q96II8: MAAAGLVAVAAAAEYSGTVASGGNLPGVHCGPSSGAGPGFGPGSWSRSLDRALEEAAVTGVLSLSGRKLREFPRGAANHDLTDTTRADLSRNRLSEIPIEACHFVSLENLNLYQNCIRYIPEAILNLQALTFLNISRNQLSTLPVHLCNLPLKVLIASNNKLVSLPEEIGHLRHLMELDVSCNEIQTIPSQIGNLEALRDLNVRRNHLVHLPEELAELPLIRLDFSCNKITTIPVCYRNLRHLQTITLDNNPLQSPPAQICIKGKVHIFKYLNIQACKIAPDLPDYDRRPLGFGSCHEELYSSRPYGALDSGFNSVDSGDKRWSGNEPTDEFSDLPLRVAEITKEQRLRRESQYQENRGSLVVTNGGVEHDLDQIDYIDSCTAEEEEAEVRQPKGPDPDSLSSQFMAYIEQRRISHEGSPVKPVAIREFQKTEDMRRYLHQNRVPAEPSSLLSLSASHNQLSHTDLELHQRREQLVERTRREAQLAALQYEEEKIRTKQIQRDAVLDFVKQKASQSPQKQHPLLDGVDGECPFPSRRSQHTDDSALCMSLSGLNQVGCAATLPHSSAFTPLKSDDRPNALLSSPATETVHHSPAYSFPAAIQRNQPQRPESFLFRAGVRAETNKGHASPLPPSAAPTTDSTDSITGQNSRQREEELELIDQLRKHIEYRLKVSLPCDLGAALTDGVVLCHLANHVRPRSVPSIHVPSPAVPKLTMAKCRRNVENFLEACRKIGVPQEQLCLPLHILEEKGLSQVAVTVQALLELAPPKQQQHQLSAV
UniProt O95777: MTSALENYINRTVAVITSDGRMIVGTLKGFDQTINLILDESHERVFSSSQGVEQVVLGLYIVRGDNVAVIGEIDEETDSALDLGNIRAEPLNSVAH
UniProt Q6P9F7: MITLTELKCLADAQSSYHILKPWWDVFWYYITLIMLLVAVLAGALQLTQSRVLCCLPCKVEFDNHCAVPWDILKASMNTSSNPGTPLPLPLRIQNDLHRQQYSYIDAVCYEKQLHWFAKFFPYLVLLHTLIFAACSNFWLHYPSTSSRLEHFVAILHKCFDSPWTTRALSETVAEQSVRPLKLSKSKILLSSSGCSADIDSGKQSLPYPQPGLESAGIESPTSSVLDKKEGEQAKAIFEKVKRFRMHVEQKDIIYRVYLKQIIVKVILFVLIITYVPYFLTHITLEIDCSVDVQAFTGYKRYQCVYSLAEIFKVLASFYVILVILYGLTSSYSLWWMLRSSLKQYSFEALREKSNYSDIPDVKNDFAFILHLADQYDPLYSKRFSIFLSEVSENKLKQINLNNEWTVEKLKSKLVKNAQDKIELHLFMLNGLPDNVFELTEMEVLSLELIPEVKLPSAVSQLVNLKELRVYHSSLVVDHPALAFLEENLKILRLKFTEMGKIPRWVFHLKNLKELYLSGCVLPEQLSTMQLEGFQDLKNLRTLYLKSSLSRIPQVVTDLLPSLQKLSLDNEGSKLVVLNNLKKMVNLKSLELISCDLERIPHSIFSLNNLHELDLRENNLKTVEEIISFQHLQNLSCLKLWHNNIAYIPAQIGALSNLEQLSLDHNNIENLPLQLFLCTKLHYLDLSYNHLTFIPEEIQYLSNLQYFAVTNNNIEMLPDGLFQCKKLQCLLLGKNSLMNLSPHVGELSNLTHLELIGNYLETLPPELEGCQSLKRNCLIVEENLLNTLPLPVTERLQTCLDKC
UniProt P48449: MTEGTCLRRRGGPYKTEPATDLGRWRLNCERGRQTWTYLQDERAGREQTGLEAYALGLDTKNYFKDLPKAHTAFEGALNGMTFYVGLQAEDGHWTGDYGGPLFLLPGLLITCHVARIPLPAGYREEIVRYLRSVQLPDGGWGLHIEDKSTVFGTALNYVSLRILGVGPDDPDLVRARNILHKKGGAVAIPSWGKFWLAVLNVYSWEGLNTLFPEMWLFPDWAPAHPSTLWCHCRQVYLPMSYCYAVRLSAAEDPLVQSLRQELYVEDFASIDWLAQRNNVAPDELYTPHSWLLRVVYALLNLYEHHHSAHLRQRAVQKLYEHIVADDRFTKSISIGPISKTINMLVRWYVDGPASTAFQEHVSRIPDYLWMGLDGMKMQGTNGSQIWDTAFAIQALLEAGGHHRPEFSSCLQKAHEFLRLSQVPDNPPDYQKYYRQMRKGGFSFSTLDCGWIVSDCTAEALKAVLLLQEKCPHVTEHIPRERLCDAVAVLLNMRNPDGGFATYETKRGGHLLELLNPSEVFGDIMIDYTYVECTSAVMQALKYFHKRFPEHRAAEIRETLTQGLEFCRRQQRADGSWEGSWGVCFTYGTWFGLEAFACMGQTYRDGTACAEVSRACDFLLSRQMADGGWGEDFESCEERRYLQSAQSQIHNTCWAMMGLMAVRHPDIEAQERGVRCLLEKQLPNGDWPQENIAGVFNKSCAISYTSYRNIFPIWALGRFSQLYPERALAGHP
UniProt Q9Y608: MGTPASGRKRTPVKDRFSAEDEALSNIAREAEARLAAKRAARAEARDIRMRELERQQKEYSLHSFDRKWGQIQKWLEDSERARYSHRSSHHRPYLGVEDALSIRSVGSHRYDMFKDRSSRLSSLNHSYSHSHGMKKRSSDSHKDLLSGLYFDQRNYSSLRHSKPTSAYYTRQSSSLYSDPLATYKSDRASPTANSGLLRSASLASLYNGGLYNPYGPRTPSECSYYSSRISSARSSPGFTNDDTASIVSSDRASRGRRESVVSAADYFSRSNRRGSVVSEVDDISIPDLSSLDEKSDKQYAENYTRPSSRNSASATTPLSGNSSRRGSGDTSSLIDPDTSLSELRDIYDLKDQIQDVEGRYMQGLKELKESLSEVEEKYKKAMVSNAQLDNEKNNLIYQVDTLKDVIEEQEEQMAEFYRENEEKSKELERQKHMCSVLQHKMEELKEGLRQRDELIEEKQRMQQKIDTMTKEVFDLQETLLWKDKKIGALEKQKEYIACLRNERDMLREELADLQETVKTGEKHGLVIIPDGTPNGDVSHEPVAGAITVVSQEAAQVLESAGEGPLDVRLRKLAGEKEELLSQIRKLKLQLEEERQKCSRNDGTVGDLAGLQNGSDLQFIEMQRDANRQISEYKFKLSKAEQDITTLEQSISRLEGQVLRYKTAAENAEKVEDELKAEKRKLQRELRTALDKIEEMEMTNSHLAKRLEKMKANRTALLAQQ
UniProt P62312: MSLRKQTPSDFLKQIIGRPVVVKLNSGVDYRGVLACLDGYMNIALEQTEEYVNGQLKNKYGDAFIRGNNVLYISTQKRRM
UniProt O15116: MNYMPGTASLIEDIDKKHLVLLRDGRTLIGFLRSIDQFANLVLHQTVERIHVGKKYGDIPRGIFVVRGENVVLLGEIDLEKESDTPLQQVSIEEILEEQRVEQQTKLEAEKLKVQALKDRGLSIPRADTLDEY
UniProt P49917: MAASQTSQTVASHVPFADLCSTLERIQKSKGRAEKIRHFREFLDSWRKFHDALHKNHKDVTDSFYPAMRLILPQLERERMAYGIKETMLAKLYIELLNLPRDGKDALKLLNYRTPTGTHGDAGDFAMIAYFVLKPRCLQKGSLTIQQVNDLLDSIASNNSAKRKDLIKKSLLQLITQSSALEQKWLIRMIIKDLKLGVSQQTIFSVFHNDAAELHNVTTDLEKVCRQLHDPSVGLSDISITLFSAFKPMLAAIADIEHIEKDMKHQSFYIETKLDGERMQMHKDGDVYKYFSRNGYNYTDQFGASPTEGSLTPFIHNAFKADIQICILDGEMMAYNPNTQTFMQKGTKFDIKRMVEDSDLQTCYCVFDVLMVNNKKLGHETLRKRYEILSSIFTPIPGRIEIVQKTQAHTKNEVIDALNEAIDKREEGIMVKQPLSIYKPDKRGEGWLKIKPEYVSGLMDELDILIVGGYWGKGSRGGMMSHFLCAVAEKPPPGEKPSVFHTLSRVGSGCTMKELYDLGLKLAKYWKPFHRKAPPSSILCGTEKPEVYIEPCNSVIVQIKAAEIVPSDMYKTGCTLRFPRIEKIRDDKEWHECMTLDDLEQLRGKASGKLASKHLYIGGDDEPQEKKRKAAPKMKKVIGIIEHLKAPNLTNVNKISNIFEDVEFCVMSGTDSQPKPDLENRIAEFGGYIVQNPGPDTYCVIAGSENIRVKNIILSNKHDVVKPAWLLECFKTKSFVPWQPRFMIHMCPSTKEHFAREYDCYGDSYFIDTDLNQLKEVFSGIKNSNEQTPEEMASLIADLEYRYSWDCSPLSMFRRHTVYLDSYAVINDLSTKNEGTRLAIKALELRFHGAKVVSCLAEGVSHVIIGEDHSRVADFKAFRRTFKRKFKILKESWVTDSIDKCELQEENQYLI

Compound: C1CN(CCC1(CC2=CC=C(C=C2)Cl)N)C3=NC=NC4=C3C=CN4
Assay: log2 fold change, soluble protein after heating vs DMSO (PISA); higher = thermal stabilisation; K562 lysate, 10 uM; active = over 0.2 and 3.5 SD of the protein, either way, in both replicates (recomputed)
Outline: (§1)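 A 30 min treatment with 10 μM compound was applied to crude K562 extract at 1 mg/mL protein in PBS pH 7.4 with 1 mM MgCl2. Heating for 3 min spanned 48°C-58°C, after which aliquots were pooled, adjusted to 0.5% NP-40 at 4°C and spun at 21,000xg for 90 min. TMTpro 16plex LC-MS/MS of the supernatant, with channel sums equalised, gave values recorded as log-two fold change in thermal stability against solvent controls, from duplicates.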

log2 fold change, inactive:
LIG1 (UniProt P18858) 0, LMTK2 (UniProt Q8IWU2) 0.1, LMNA (UniProt P02545) -0.019, LARS2 (UniProt Q15031) 0.039, LINGO1 (UniProt Q96FE5) 0.019, LDB1 (UniProt Q86U70) 0.045, LRRC57 (UniProt Q8N9N7) -0.02, LDHC (UniProt P07864) 0.019, LENG1 (UniProt Q96BZ8) -0.08, LRRC8A (UniProt Q8IWT6) 0.033, LRWD1 (UniProt Q9UFC0) 0.03, LRRC40 (UniProt Q9H9A6) -0.011, LCP2 (UniProt Q13094) 0.057, LRCH3 (UniProt Q96II8) -0.014, LSM8 (UniProt O95777) -0.021, LIN54 (UniProt Q6MZP7) -0.03, LRPAP1 (UniProt P30533) -0.016, LRRC8B (UniProt Q6P9F7) -0.014, LSS (UniProt P48449) 0.019, LRRC8C (UniProt Q8TDW0) 0.031, LPIN1 isoform 7 (UniProt Q14693) 0.132, LRRFIP2 (UniProt Q9Y608) -0.018, LSM6 (UniProt P62312) 0.007, LSM1 (UniProt O15116) 0.03, LMAN1 (UniProt P49257) 0.004, LRRC14 (UniProt Q15048) 0.062, LETM1 (UniProt O95202) 0.02, LMNB1 (UniProt P20700) -0.009, LPCAT3 (UniProt Q6P1A2) 0.002, LIG4 (UniProt P49917) -0.057, LRCH4 (UniProt O75427) -0.112, LMO2 isoform 3 (UniProt P25791) -0.055, LGALS3 (UniProt P17931) -0.16, LSM3 (UniProt P62310) 0.035, LCP1 (UniProt P13796) 0.001, LCMT2 (UniProt O60294) -0.003, LDAH isoform 2 (UniProt Q9H6V9) 0, LIN7C (UniProt Q9NUP9) -0.001

Compound: C1COCCN1CCN2C3=CC=CC=C3N=C2NC(=O)C4=CC(=CC=C4)[N+](=O)[O-] [IRAK-1-4 Inhibitor I]
Assay: as above
Outline: as §1

log2 fold change, inactive:
LIG1 (UniProt P18858) -0.013, LMTK2 (UniProt Q8IWU2) -0.007, LMNA (UniProt P02545) -0.004, LARS2 (UniProt Q15031) -0.021, LINGO1 (UniProt Q96FE5) 0.033, LDB1 (UniProt Q86U70) 0.01, LRRC57 (UniProt Q8N9N7) 0.006, LDHC (UniProt P07864) -0.041, LENG1 (UniProt Q96BZ8) 0.095, LRRC8A (UniProt Q8IWT6) 0.014, LRWD1 (UniProt Q9UFC0) -0.02, LRRC40 (UniProt Q9H9A6) -0.017, LCP2 (UniProt Q13094) 0.016, LRCH3 (UniProt Q96II8) 0.028, LSM8 (UniProt O95777) 0.028, LIN54 (UniProt Q6MZP7) 0.049, LRPAP1 (UniProt P30533) 0.018, LRRC8B (UniProt Q6P9F7) 0.035, LSS (UniProt P48449) 0, LRRC8C (UniProt Q8TDW0) 0.057, LPIN1 isoform 7 (UniProt Q14693) 0.034, LRRFIP2 (UniProt Q9Y608) -0.039, LSM6 (UniProt P62312) -0.002, LSM1 (UniProt O15116) 0.015, LMAN1 (UniProt P49257) 0.01, LRRC14 (UniProt Q15048) 0.066, LETM1 (UniProt O95202) -0.013, LMNB1 (UniProt P20700) -0.036, LPCAT3 (UniProt Q6P1A2) 0.006, LIG4 (UniProt P49917) -0.001, LRCH4 (UniProt O75427) 0.023, LMO2 isoform 3 (UniProt P25791) 0.028, LGALS3 (UniProt P17931) -0.193, LSM3 (UniProt P62310) 0.024, LCP1 (UniProt P13796) 0.005, LCMT2 (UniProt O60294) -0.036, LDAH isoform 2 (UniProt Q9H6V9) 0.029, LIN7C (UniProt Q9NUP9) -0.073
